Test results published in paper PMC7141810, “UBP12 and UBP13 negatively regulate the activity of the ubiquitin-dependent peptidases DA1, DAR1 and DAR2” (eLife, 2020).

Assays:
Experiment in all cases: affinity purification with mass spectrometry; total protein extracts of eight-day-old Arabidopsis seedlings overexpressing GFP-tagged bait, incubated with anti-GFP beads (uMacs) 1 hr at 4°C, BHB+ buffer; on-bead digestion, MS/MS, label free quantification against control
[1] = molecular target: T1, GFP-DA1 (Arabidopsis thaliana) (UniProt P0C7Q8)
T1 sequence: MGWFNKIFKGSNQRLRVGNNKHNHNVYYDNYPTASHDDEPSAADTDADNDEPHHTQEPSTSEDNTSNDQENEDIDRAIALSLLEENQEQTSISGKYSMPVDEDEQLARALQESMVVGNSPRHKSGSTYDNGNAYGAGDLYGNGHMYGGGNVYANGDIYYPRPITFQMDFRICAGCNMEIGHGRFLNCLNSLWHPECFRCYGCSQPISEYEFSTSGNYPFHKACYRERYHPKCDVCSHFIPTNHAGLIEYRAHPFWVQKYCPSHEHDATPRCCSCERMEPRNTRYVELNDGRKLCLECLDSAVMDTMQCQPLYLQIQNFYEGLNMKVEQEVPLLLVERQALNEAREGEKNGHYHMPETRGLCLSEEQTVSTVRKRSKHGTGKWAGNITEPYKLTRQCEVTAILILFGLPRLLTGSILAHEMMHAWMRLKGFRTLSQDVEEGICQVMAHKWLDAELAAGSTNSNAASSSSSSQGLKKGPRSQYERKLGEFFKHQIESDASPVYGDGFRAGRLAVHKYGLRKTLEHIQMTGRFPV

[2] = molecular target: T2, GFP-DAR1 (Arabidopsis thaliana) (UniProt Q8W4F0)
T2 sequence: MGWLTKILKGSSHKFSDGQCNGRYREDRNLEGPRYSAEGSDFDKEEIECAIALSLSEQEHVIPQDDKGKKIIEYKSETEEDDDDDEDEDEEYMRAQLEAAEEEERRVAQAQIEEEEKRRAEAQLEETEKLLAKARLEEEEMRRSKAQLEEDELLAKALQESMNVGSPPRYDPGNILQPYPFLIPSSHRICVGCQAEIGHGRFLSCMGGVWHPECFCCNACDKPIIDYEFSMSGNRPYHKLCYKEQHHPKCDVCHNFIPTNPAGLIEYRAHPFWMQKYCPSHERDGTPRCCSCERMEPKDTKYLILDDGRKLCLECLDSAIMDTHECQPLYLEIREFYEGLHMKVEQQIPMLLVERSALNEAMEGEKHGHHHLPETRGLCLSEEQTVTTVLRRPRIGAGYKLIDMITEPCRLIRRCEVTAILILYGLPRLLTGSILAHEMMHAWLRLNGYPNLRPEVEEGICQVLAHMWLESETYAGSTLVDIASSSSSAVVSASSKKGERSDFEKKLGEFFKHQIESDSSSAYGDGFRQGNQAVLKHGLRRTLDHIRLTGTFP

[3] = molecular target: T3, GFP-DAR2 (Arabidopsis thaliana) (UniProt Q0WSN2)
T3 sequence: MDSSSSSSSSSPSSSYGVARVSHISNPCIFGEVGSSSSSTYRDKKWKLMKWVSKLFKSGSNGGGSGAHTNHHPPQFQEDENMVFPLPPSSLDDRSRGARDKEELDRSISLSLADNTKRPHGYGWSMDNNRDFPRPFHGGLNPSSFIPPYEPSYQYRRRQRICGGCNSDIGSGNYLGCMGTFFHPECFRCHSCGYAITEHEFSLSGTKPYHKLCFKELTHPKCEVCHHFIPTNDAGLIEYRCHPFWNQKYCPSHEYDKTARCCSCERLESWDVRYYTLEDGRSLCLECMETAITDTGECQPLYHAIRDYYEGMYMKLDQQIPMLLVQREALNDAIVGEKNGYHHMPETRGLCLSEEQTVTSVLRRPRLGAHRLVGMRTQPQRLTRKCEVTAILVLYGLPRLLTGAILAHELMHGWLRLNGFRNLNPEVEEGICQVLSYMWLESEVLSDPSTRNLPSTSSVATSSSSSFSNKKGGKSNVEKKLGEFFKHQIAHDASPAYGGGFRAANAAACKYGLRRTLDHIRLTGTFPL

B1: UBIQUITIN-SPECIFIC PROTEASE 12 (UBP12) (enzyme, UniProt Q9FPT1 1-1116)
chain: MTMMTPPPVDQPEDEEMLVPNSDLVDGPAQPMEVTQPETAASTVENQPAEDPPTLKFTWTIPNFSRQNTRKHYSDVFVVGGYKWRILIFPKGNNVDHLSMYLDVSDAASLPYGWSRYAQFSLAVVNQIHTRYTVRKETQHQFNARESDWGFTSFMPLSELYDPSRGYLVNDTVLVEAEVAVRKVLDYWSYDSKKETGFVGLKNQGATCYMNSLLQTLYHIPYFRKAVYHMPTTENDAPTASIPLALQSLFYKLQYNDTSVATKELTKSFGWDTYDSFMQHDVQELNRVLCEKLEDKMKGTVVEGTIQQLFEGHHMNYIECINVDFKSTRKESFYDLQLDVKGCKDVYASFDKYVEVERLEGDNKYHAEGHGLQDAKKGVLFIDFPPVLQLQLKRFEYDFMRDTMVKINDRYEFPLELDLDREDGKYLSPDADRSVRNLYTLHSVLVHSGGVHGGHYYAFIRPTLSDQWYKFDDERVTKEDLKRALEEQYGGEEELPQTNPGFNNNPPFKFTKYSNAYMLVYIRESDKDKIICNVDEKDIAEHLRVRLKKEQEEKEDKRRYKAQAHLYTIIKVARDEDLKEQIGKDIYFDLVDHDKVRSFRIQKQTPFQQFKEEVAKEFGVPVQLQRFWIWAKRQNHTYRPNRPLTPQEELQPVGQIREASNKANTAELKLFLEVEHLDLRPIPPPEKSKEDILLFFKLYDPEKAVLSYAGRLMVKSSSKPMDITGKLNEMVGFAPDEEIELFEEIKFEPCVMCEHLDKKTSFRLCQIEDGDIICFQKPLVNKEIECLYPAVPSFLEYVQNRQLVRFRALEKPKEDEFVLELSKQHTYDDVVEKVAEKLGLDDPSKLRLTSHNCYSQQPKPQPIKYRGVDHLSDMLVHYNQTSDILYYEVLDIPLPELQGLKTLKVAFHHATKEEVVIHNIRLPKQSTVGDVINELKTKVELSHPDAELRLLEVFYHKIYKIFPSTERIENINDQYWTLRAEEIPEEEKNIGPNDRLILVYHFAKETGQNQQVQNFGEPFFLVIHEGETLEEIKNRIQKKLHVSDEDFAKWKFAFMSMGRPEYLQDTDVVYNRFQRRDVYGAFEQYLGLEHADTTPKRAYAANQNRHAYEKPVKIYN
[1]
  binding: binds
[2]
  binding: binds
[3]
  binding: binds

B2: UBP13 (enzyme, UniProt Q84WU2 1-1115)
chain: MTMMTPPPLDQQEDEEMLVPNPDLVEGPQPMEVAQTDPAATAVENPPPEDPPSLKFTWTIPMFTRLNTRKHYSDVFVVGGYKWRILIFPKGNNVDHLSMYLDVADAANLPYGWSRYSQFSLAVVNQVNNRYSIRKETQHQFNARESDWGFTSFMPLSELYEPTRGYLVNDTVLIEAEVAVRKVLDYWSYDSKKETGFVGLKNQGATCYMNSLLQTLYHIPYFRKAVYHMPTTENDAPTASIPLALQSLFYKLQYNDTSVATKELTKSFGWDTYDSFMQHDVQELNRVLCEKLEDKMKGTVVEGTIQKLFEGHHMNYIECINVDYKSTRKESFYDLQLDVKGCKDVYASFDKYVEVERLEGDNKYHAEGHDLQDAKKGVLFIDFPPVLQLQLKRFEYDFMRDTMVKINDRYEFPLQLDLDREDGRYLSPDADKSVRNLYTLHSVLVHSGGVHGGHYYAFIRPTLSDQWYKFDDERVTKEDVKRALEEQYGGEEELPQNNPGFNNPPFKFTKYSNAYMLVYIRESDKDKIICNVDEKDIAEHLRVRLKKEQEEKEDKRKYKAQAHLFTTIKVARDDDITEQIGKNIYFDLVDHEKVRSFRIQKQTPFQQFKEEVAKEFGVPVQLQRFWIWAKRQNHTYRPNRPLSPNEELQTVGQIREASNKANNAELKLFLEIERGPDDLPIPPPEKTSEDILLFFKLYDPENAVLRYVGRLMVKSSSKPMDIVGQLNKMAGFAPDEEIELFEEIKFEPCVMCEQIDKKTSFRLCQIEDGDIICYQKPLSIEESEFRYPDVPSFLEYVQNRELVRFRTLEKPKEDEFTMELSKLHTYDDVVERVAEKLGLDDPSKLRLTSHNCYSQQPKPQPIKYRGVDHLSDMLVHYNQTSDILYYEVLDIPLPELQGLKTLKVAFHSATKDEVIIHNIRLPKQSTVGDVINELKTKVELSHQDAELRLLEVFFHKIYKIFPSTERIENINDQYWTLRAEEIPEEEKNIGPNDRLIHVYHFTKEAGQNQQVQNFGEPFFLVIHEGETLEEIKTRIQKKLHVPDEDFAKWKFASFSMGRPDYLLDTDVVYNRFQRRDVYGAWEQYLGLEHIDNAPKRAYAANQNRHAYEKPVKIYN
[1]
  binding: binds
[2]
  binding: binds

These are yes or no findings as the source states them, for the method shown. Binding seen in cells or lysates may run through a third protein. Here binding means that the protein was enriched with, or labelled near, the bait; the list need not be complete. Tags and fused reporters may be left off the sequences shown.
